Experimental data published in paper PMC7468108 (Communications Biology, 2020).
The source gives many values for each of these; only a part stands here.

Molecular target: T1, pre-formed fibrils of hIAPP (Homo sapiens, UniProt P10997)
T1 construct: hIAPP is a 37-amino acid neuroendocrine peptide hormone; purchased Peptide 2.0 (USA)
T1 sequence (P10997 34-70 limits assumed): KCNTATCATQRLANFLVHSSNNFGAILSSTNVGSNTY
Test: CD spectroscopy of pre-formed hIAPP fibrils with the tested molecules
Conditions: hIAPP : molecule (1:5)
Protocol: For efficient treatment of proteinopathies it may be advantageous to disassemble amyloid aggregates/fibrils which are usually already present at the time of diagnosis[75]–[77]. […] Then, various doses of the hybrid molecules were added to the pre-formed fibrils and the mixtures were incubated for additional 10 h. The process of disaggregation was monitored by ThT-binding assay, CD spectroscopy, TEM and Congo red staining (Fig. 5).
The blank was subtracted from the acquired CD spectra. For the CD study in the presence of the tryptophan-galacosylamine molecules, the spectra of hybrid molecules were also recorded separately and subtracted from the respective sample spectra. The normalized data were plotted using Origin pro 2015 software.

With `NC(Cc1c[nH]c2ccccc12)C(=O)NC(Cc1c[nH]c2ccccc12)C(=O)O` (centres unmarked) [WW] the “Normalized CD spectra” value (wavelength 213.50) was -689414.30, the “Normalized CD spectra” value (wavelength 214.00) was -712935.97 and the “Normalized CD spectra” value (wavelength 214.50) was -736109.66. The “Normalized CD spectra” value (wavelength 215.00) was -754910.60, the “Normalized CD spectra” value (wavelength 215.50) was -771687.88 and the “Normalized CD spectra” value (wavelength 216.00) was -789854.61. The “Normalized CD spectra” value (wavelength 216.50) was -797307.36, the “Normalized CD spectra” value (wavelength 217.00) was -807160.37 and the “Normalized CD spectra” value (wavelength 217.50) was -812228.62. For the same compound, the “Normalized CD spectra” value (wavelength 218.00) was -814026.86, the “Normalized CD spectra” value (wavelength 218.50) was -814127.55 and the “Normalized CD spectra” value (wavelength 219.00) was -809702.10. The “Normalized CD spectra” value (wavelength 219.50) was -806607.28, the “Normalized CD spectra” value (wavelength 220.00) was -789530.91 and the “Normalized CD spectra” value (wavelength 220.50) was -771743.58. The “Normalized CD spectra” value (wavelength 221.00) was -750973.22, the “Normalized CD spectra” value (wavelength 221.50) was -730100.85 and the “Normalized CD spectra” value (wavelength 222.00) was -703709.13. The “Normalized CD spectra” value (wavelength 222.50) was -679655.54, the “Normalized CD spectra” value (wavelength 223.00) was -649856.36 and the “Normalized CD spectra” value (wavelength 223.50) was -625066.07. For the same compound, the “Normalized CD spectra” value (wavelength 224.00) was -597591.79, the “Normalized CD spectra” value (wavelength 224.50) was -572308.76 and the “Normalized CD spectra” value (wavelength 225.00) was -549190.55. The “Normalized CD spectra” value (wavelength 225.50) was -529135.62, the “Normalized CD spectra” value (wavelength 226.00) was -504549.52 and the “Normalized CD spectra” value (wavelength 226.50) was -482516.27. The “Normalized CD spectra” value (wavelength 227.00) was -463615.10, the “Normalized CD spectra” value (wavelength 227.50) was -440899.17 and the “Normalized CD spectra” value (wavelength 228.00) was -429583.60. The “Normalized CD spectra” value (wavelength 228.50) was -411639.04, the “Normalized CD spectra” value (wavelength 229.00) was -391797.81 and the “Normalized CD spectra” value (wavelength 229.50) was -375118.81. For the same compound, the “Normalized CD spectra” value (wavelength 230.00) was -362277.05, the “Normalized CD spectra” value (wavelength 230.50) was -354884.11 and the “Normalized CD spectra” value (wavelength 231.00) was -348941.62. The “Normalized CD spectra” value (wavelength 231.50) was -338837.25, the “Normalized CD spectra” value (wavelength 258.50) was -99787.90 and the “Normalized CD spectra” value (wavelength 259.00) was -103215.58. For the same compound, the “Normalized CD spectra” value (wavelength 259.50) was -106940.42 and the “Normalized CD spectra” value (wavelength 260.00) was -110962.43.
